Assay results reported in patent US20090270453A1, “ANTI-MANIC EFFECTIVE DOSES OF SERTINDOLE” (priority 2007, published 2009).
At least one compound was matched to its structure with a doubt left.

System: AMPH+CDP induced locomotor activity
Assay: Sensitized AMPH+CDP response model (induced locomotor hyperactivity)
Format: in vivo, Male Wistar rats
Conditions: rats, s.c. pre-treatment, about 120 min test-period
Protocol: Subjects: Male Wistar rats weighing about 150-200 g were housed 2-4 rats per cage in makrolon cages (about 20×about 35 cm) equipped with sawdust and with one plastic house for enrichment. The animals were kept at room temperature (about 20° C.±2) in about 12-hour light/dark cycle (lights on at about 06:00) with free access to food and tap water. The rats were allowed to acclimatize to the animal facility premises for about 5-9 days prior to the initiation of experiments. The animals were taken to the experimental room on the day before the experiment and weighed.
Drugs: All drugs are listed as mg free base/kg with the exception of lithium (mEq/kg). Drug solutions were titrated into a pH range of about 4.5-7.0 for subcutaneous (s.c.) administration. […]
Test procedure: For the assessment of locomotor activity, makrolon cages (about 20×about 35 cm) with a thin layer of standard bedding material were placed in a U-frame equipped longitudinally with 4 infrared light sources and photocells placed about 4 cm above the bottom of the cage. […] During the test session, locomotor activity was recorded as crossings of infrared light beams and total locomotor activity was the accumulated number of crossings over the approximately 120-min period. […]

CN(C)CCCC1(c2ccc(F)cc2)OCc2cc(C#N)ccc21 (stereo not shown) [citalopram]
effect on AMPH+CDP induced locomotor activity (hyperactivity): produced an increase in locomotor activity
